For at least one entry, the source does not settle the construct or the ends of the probe. No signal at the amounts used counts as a negative. A weaker result is weaker than the reference pair of the same experiment.
Test system: BjMYB1 (R2R3-MYB) (Brassica juncea)
Assay: EMSA
Conditions: 1x binding buffer (Pierce), 5 mM MgCl2, 50 ng/ul poly(dI-dC), 0.05% NP-40, 2.5% glycerol, 40 fmol biotin DNA, 15 fmol His-BjMYB1 in 20 ul, room temperature 30 min, recombinant protein, protein details: His (pET-28a)

ACCACCCTTTATACCCACCTACCAGACACCAACGCTCCAG (double strand) [PAL2Pro]
binding result: no binding

GCCCAGCTAGTGAGTAACCTACCACATGAGGTAGAGAGAGGG (double strand) [W4-d3 (AC element)]
binding result (almost no binding affinity): binds more weakly

GCCCAGCTAGTGAGTAGTCATGAGGTAGAGAGAGGG (double strand) [W4-d1]
binding result: no binding

GCCCAGCTAGTGAGTAGTGACTCATGAGGTAGAGAGAGGG (double strand) [W4 (Wbl-4)]
binding result: binds

GCCCAGCTAGTGAGTATTGACCCATGAGGTAGAGAGAGGG (double strand) [W4-d2 (W-box)]
binding result: binds
